The text below walks through data of paper PMC8688524.

Amino acid sequences for entries named in this document (tags omitted). Residues count along the entry.
UniProt A8TX70, residues 19-2615: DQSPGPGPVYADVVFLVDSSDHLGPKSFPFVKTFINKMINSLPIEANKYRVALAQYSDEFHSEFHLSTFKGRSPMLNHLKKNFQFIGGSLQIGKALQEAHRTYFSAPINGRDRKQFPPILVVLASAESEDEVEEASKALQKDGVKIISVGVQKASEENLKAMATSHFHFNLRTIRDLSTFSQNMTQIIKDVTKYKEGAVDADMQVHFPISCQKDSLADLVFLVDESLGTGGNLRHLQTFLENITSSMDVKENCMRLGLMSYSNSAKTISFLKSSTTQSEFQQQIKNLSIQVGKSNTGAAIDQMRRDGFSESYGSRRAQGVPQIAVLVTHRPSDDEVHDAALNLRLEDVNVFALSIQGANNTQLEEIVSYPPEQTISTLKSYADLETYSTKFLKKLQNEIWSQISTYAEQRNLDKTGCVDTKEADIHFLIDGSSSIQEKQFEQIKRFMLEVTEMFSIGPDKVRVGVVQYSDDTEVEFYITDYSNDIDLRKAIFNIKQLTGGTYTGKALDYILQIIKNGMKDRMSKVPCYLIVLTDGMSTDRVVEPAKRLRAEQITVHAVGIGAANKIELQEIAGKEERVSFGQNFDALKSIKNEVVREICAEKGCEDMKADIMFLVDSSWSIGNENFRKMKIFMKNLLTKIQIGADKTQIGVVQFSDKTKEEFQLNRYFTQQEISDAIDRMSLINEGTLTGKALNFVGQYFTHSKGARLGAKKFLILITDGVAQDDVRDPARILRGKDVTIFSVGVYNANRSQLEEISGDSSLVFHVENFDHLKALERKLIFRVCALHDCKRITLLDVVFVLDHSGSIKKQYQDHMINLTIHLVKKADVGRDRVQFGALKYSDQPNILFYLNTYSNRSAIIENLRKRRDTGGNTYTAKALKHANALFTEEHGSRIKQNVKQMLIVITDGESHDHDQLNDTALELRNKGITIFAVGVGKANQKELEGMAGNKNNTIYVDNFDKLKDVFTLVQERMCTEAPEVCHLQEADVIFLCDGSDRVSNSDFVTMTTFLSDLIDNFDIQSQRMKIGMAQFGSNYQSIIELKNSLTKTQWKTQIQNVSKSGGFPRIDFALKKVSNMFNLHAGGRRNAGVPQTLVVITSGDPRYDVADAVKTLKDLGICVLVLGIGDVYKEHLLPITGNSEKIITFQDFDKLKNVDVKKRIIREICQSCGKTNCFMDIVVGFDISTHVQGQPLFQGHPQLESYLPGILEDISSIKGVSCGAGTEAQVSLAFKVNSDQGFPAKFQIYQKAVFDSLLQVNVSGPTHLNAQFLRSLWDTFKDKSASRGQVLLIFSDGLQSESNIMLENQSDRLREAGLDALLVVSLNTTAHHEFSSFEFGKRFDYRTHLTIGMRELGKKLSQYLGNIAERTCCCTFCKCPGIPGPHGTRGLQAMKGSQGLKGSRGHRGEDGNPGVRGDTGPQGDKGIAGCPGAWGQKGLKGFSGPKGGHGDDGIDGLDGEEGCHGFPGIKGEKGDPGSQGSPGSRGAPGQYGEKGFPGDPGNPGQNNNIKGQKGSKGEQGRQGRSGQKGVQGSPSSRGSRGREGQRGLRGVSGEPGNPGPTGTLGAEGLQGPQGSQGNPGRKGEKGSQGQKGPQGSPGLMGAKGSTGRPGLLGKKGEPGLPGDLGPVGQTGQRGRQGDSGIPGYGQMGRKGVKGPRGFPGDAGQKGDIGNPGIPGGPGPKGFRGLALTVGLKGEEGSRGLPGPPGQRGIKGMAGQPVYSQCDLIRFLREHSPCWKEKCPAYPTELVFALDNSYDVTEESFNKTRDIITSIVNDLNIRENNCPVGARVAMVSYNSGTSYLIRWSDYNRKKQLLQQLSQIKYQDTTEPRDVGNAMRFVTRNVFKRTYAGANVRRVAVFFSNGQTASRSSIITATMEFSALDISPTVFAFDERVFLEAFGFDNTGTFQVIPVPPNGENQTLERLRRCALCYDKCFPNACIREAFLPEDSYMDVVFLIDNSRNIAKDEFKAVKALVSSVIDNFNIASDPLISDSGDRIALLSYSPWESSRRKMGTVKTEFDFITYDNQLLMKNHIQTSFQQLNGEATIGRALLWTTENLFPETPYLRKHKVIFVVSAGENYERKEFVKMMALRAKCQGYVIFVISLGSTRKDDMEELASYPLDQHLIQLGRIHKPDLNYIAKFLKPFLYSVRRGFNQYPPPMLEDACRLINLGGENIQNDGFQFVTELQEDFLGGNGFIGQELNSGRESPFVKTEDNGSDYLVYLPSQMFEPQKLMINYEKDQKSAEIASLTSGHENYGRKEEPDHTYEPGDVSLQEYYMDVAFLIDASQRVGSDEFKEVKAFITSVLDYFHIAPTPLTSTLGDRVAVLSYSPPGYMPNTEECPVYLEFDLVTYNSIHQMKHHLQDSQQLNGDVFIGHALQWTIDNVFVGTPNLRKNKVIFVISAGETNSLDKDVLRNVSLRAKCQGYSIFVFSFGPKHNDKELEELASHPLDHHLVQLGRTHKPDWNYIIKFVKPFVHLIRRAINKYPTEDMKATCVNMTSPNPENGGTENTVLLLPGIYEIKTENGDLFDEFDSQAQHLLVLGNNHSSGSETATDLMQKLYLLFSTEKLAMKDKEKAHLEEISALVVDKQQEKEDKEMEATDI
UniProt Q14050, residues 26-684: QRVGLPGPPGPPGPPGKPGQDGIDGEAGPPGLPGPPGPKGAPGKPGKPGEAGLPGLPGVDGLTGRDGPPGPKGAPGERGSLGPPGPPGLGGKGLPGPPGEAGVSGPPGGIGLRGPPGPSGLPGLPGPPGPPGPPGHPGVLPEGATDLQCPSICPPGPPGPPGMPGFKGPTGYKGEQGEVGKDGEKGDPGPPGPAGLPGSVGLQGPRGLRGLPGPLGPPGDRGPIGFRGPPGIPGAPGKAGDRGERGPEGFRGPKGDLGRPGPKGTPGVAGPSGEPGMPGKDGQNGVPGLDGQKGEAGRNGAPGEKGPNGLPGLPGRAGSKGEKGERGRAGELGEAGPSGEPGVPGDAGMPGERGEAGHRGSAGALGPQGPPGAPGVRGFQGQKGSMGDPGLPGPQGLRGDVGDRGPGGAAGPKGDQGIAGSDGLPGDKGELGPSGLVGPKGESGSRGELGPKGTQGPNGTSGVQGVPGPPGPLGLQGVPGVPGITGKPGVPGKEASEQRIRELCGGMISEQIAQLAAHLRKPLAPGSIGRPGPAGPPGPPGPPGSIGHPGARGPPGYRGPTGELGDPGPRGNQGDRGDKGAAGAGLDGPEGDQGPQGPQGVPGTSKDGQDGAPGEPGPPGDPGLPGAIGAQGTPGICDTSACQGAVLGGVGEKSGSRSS

One test concerns the target T1, GST-USP3 (UniProt Q9Y6I4).
T1 sequence: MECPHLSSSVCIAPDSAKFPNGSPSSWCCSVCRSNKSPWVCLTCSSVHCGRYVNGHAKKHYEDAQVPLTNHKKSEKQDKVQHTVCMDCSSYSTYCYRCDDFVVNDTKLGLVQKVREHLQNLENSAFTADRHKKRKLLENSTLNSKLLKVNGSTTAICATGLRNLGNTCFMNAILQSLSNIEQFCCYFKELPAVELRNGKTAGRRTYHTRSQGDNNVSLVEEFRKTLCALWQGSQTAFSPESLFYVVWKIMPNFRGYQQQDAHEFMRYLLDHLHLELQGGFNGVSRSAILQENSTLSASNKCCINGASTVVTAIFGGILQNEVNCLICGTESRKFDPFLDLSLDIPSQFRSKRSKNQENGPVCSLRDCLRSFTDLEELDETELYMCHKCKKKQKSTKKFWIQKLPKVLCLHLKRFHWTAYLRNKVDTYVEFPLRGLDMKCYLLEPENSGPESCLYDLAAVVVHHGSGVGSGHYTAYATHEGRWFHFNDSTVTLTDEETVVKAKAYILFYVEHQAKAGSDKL
As to the kind of experiment: pull-down; lysates of AGS and BGC-823 cells transfected with COL9A3 or COL6A5 incubated with GST or GST-USP3; proteins retained on sepharose blotted; only the target purified.

Test [1] deals with COL6A5, endogenous (human (endogenous in GC cells)) (UniProt A8TX70). Description: co-IP; reciprocal co-IP of endogenous proteins from GC cell lysates with control IgG, anti-USP3, anti-COL9A3 or anti-COL6A5; antibody overnight at 4 °C, protein A/G agarose 2 h at 4 °C; western blot. (In general: Immunoblotting shows a protein as a band on a membrane.)
Test [2] concerns the target COL9A3, endogenous (human (endogenous in GC cells)) (UniProt Q14050). Described as above.
The target in the next test is Myc-tagged COL9A3 (UniProt Q14050). As to the kind of experiment: co-IP; tagged constructs co-transfected into AGS (Fig. 2B also BGC-823) cells; immunoprecipitation with anti-Flag, anti-Myc or anti-His; antibody overnight at 4 °C, protein A/G agarose 2 h at 4 °C; western blot.
A further test has as its target His-tagged COL6A5 (UniProt A8TX70). The test is described as above.

No constants are given. Whether binding was seen depends on the method and setting. In cells and extracts the contact can be indirect. Some results given as binding are weak or reduced against the parent protein; the word gives no strength. For part of these data: Tags and fused reporters may be left off the sequences shown.

For “Myc-tagged COL9A3 (from UniProt Q14050 26-684)”, the binding entry with GST-USP3 is on record as “binds”. With “His-tagged COL6A5 (from UniProt A8TX70 19-2615)”, the binding entry with GST-USP3 was “binds”.

B1: Ubiquitin-specific protease 3 (USP3), endogenous (enzyme, UniProt Q9Y6I4 1-520)
chain: MECPHLSSSVCIAPDSAKFPNGSPSSWCCSVCRSNKSPWVCLTCSSVHCGRYVNGHAKKHYEDAQVPLTNHKKSEKQDKVQHTVCMDCSSYSTYCYRCDDFVVNDTKLGLVQKVREHLQNLENSAFTADRHKKRKLLENSTLNSKLLKVNGSTTAICATGLRNLGNTCFMNAILQSLSNIEQFCCYFKELPAVELRNGKTAGRRTYHTRSQGDNNVSLVEEFRKTLCALWQGSQTAFSPESLFYVVWKIMPNFRGYQQQDAHEFMRYLLDHLHLELQGGFNGVSRSAILQENSTLSASNKCCINGASTVVTAIFGGILQNEVNCLICGTESRKFDPFLDLSLDIPSQFRSKRSKNQENGPVCSLRDCLRSFTDLEELDETELYMCHKCKKKQKSTKKFWIQKLPKVLCLHLKRFHWTAYLRNKVDTYVEFPLRGLDMKCYLLEPENSGPESCLYDLAAVVVHHGSGVGSGHYTAYATHEGRWFHFNDSTVTLTDEETVVKAKAYILFYVEHQAKAGSDKL
On to B1, for which the binding result in test [1] and in test [2] was “binds” in each case.

B2: Flag-tagged USP3 (enzyme, UniProt Q9Y6I4 1-520)
chain: MECPHLSSSVCIAPDSAKFPNGSPSSWCCSVCRSNKSPWVCLTCSSVHCGRYVNGHAKKHYEDAQVPLTNHKKSEKQDKVQHTVCMDCSSYSTYCYRCDDFVVNDTKLGLVQKVREHLQNLENSAFTADRHKKRKLLENSTLNSKLLKVNGSTTAICATGLRNLGNTCFMNAILQSLSNIEQFCCYFKELPAVELRNGKTAGRRTYHTRSQGDNNVSLVEEFRKTLCALWQGSQTAFSPESLFYVVWKIMPNFRGYQQQDAHEFMRYLLDHLHLELQGGFNGVSRSAILQENSTLSASNKCCINGASTVVTAIFGGILQNEVNCLICGTESRKFDPFLDLSLDIPSQFRSKRSKNQENGPVCSLRDCLRSFTDLEELDETELYMCHKCKKKQKSTKKFWIQKLPKVLCLHLKRFHWTAYLRNKVDTYVEFPLRGLDMKCYLLEPENSGPESCLYDLAAVVVHHGSGVGSGHYTAYATHEGRWFHFNDSTVTLTDEETVVKAKAYILFYVEHQAKAGSDKL
With B2, the binding result in the test with Myc-tagged COL9A3 and in the test with His-tagged COL6A5 was “binds” each time.
